Experimental findings from paper PMC9161502 are described below.

Sequences of proteins named here, by UniProt entry; tags and fusion partners are left off.
UniProt A2BH40: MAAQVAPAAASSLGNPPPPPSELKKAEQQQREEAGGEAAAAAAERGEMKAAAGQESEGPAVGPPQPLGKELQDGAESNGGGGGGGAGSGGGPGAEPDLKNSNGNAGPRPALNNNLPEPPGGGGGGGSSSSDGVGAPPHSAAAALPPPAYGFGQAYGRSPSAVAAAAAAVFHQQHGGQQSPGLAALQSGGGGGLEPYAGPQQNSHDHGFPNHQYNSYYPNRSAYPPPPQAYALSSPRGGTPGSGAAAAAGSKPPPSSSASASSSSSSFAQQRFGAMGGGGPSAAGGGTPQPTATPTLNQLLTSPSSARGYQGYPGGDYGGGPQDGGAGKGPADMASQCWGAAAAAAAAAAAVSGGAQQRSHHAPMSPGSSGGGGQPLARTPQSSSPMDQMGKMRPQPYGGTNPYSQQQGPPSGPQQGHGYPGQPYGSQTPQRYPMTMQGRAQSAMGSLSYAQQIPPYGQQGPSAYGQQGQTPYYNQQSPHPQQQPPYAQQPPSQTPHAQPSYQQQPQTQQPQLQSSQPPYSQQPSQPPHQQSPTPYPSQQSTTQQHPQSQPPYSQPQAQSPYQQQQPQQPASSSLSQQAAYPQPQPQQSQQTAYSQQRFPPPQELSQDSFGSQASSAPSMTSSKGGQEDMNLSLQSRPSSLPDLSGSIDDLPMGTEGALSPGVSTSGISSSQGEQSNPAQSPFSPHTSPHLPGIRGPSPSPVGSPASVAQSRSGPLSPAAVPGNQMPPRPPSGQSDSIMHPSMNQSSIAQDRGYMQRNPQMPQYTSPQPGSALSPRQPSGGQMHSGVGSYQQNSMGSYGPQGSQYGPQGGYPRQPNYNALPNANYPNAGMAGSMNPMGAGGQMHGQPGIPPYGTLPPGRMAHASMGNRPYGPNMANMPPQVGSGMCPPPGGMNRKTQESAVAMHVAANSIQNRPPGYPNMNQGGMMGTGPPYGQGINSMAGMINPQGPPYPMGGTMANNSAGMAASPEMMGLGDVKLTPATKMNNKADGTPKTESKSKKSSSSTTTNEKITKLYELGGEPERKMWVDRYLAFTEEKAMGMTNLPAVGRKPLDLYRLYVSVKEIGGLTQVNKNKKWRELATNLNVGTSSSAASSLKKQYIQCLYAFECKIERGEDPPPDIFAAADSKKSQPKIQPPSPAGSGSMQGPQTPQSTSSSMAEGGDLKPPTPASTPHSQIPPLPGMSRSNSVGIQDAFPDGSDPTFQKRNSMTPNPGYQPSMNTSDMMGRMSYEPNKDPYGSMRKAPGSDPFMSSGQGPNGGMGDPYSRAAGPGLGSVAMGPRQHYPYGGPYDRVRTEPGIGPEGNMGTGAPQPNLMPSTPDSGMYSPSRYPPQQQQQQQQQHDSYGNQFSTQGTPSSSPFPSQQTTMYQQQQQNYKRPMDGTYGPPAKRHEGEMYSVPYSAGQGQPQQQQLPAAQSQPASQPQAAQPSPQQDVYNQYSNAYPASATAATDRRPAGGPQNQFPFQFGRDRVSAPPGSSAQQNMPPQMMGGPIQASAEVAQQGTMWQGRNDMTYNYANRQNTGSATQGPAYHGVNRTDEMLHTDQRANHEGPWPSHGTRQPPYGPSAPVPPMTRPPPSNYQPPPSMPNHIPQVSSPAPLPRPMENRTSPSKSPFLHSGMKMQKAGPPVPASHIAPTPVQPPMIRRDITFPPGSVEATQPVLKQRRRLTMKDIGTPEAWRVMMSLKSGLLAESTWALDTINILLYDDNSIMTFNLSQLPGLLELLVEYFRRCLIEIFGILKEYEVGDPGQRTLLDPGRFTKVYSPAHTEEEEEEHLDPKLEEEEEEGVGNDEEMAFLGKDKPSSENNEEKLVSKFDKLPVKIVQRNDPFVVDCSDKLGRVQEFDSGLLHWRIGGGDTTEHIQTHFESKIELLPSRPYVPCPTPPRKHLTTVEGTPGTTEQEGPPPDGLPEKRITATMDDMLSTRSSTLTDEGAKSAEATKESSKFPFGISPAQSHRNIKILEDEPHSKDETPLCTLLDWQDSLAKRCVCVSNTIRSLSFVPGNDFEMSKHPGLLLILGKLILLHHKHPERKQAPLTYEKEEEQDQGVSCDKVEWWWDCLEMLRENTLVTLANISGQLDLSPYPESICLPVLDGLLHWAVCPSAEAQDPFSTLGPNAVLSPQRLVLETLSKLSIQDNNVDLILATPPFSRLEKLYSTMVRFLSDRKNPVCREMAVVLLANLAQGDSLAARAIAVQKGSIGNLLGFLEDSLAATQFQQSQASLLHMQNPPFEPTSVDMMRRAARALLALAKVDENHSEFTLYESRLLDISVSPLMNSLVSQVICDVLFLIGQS
UniProt Q6PDQ2: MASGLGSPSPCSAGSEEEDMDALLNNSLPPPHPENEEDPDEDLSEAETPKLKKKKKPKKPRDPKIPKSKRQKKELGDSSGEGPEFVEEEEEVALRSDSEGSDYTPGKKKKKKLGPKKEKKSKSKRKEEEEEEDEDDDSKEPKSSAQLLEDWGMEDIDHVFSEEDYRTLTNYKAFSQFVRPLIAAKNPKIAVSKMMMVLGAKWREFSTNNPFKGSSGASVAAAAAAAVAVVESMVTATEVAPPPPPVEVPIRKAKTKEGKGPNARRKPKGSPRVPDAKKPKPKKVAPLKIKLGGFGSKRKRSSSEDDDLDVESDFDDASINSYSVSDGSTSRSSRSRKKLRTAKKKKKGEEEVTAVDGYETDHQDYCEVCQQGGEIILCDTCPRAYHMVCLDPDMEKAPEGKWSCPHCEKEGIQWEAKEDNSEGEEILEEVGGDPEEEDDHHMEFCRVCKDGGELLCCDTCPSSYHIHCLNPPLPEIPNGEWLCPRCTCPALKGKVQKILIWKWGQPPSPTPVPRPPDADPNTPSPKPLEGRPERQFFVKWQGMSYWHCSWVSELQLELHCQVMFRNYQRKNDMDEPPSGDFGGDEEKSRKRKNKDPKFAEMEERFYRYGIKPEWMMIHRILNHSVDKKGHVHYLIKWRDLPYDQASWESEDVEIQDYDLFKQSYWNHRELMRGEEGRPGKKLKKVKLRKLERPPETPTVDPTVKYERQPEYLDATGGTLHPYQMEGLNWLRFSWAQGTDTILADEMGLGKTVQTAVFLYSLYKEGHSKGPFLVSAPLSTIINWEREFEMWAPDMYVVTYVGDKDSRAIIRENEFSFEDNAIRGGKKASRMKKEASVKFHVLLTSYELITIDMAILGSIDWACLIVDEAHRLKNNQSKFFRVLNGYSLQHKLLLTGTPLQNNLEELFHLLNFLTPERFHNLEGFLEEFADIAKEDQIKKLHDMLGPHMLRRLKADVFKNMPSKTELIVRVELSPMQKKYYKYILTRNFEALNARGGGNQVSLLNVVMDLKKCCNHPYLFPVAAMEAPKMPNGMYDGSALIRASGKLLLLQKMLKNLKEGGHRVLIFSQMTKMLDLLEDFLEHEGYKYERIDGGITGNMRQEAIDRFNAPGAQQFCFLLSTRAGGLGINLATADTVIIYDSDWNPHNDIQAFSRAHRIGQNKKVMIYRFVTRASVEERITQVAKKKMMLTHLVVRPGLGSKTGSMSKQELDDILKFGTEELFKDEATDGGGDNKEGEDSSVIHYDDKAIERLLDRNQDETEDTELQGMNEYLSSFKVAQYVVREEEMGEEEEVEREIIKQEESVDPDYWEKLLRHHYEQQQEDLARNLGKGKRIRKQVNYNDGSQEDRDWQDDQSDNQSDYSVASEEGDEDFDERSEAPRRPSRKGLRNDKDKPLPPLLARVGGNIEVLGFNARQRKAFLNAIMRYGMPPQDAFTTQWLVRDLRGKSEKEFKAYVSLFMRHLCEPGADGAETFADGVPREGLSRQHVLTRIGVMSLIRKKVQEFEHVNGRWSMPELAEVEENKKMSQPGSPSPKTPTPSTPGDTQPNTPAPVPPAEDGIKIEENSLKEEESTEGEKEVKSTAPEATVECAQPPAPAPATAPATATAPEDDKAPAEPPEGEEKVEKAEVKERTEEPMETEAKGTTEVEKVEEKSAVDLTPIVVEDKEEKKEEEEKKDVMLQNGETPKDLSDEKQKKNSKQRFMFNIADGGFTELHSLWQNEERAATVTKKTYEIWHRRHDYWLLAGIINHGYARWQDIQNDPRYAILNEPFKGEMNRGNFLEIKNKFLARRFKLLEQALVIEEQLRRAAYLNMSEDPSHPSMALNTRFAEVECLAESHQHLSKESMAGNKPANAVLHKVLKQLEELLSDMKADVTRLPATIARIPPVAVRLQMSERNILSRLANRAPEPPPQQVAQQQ
UniProt P97496: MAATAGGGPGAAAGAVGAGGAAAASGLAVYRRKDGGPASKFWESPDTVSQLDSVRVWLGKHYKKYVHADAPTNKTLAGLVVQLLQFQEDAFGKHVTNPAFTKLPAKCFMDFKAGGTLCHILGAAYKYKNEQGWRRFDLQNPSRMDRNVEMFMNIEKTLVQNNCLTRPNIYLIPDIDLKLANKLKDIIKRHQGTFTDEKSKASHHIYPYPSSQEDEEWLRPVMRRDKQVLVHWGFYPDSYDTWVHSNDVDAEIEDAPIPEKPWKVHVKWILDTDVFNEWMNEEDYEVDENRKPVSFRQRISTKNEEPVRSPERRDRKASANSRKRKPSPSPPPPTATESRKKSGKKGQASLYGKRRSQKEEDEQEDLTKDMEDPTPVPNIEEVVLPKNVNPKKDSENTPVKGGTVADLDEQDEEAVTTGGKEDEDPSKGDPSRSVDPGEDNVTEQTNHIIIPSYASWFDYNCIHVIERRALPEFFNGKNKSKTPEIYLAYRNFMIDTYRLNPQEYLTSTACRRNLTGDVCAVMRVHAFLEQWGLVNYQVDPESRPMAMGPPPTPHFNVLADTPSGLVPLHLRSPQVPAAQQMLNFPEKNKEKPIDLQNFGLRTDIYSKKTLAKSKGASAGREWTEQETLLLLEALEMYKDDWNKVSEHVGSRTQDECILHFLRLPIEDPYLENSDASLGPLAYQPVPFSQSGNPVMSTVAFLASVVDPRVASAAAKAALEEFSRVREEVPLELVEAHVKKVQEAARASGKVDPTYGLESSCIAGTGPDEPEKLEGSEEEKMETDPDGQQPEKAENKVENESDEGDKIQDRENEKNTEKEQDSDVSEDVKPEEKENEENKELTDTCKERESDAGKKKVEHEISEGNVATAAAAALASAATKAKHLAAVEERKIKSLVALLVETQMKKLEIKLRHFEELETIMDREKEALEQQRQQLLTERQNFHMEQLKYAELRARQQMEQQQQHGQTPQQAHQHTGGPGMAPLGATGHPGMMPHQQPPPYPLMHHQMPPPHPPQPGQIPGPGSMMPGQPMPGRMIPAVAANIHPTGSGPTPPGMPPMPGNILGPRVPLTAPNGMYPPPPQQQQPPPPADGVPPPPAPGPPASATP
UniProt P23198: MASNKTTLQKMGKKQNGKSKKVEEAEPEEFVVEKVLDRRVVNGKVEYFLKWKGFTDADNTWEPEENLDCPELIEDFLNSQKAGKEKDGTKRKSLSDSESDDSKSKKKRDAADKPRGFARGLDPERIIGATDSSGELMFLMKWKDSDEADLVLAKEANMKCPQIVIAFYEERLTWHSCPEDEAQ

Results are given in words; binding and its absence hold for the method and conditions named. In cells and extracts the contact can be indirect. Some entries that bind do so weakly or less than the wild type. For some assays here: Tags and fused reporters may be left off the sequences shown.

One assay deals with T1, 3 × Flag-POGZ (mouse) (UniProt Q8BZH4).
T1 sequence: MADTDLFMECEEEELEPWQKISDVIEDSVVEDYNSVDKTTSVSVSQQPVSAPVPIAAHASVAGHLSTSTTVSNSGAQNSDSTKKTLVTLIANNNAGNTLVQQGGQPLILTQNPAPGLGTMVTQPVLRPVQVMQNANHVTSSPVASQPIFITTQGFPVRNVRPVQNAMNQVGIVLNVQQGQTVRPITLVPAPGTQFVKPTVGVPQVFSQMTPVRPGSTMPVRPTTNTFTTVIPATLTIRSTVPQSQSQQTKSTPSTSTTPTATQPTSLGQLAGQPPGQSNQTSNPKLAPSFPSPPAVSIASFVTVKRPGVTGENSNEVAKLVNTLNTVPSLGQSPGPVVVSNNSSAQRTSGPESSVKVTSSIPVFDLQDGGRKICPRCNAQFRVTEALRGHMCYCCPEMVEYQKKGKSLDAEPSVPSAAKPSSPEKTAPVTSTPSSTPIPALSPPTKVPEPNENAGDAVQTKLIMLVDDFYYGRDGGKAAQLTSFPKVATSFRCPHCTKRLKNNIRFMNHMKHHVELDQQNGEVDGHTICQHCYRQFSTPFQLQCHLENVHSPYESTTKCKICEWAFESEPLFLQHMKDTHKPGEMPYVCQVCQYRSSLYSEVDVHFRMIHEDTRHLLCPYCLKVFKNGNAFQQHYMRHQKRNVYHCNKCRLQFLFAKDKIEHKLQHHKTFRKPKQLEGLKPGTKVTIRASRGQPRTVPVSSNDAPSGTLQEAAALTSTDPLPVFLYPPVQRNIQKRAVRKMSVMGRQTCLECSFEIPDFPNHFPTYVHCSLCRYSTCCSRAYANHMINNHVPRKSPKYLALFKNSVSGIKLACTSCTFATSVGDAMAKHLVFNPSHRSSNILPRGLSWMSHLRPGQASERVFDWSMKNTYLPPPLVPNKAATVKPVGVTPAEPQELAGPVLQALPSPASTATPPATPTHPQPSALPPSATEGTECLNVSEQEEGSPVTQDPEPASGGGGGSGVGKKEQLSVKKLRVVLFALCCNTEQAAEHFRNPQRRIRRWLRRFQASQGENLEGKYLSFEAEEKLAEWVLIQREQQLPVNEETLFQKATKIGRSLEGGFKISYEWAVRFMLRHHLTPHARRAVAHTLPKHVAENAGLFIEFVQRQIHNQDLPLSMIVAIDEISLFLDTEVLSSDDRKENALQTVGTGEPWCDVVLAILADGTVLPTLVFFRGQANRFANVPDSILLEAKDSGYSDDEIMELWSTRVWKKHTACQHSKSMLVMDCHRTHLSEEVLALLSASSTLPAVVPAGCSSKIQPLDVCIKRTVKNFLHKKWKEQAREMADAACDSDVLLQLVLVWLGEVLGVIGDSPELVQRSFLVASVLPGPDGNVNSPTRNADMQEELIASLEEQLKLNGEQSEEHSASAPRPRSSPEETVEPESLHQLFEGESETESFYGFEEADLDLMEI
Kind of assay: co-IP; FLAG-POGZ Pogz−/− ESCs; total cell lysate with antibody-conjugated Dynabeads Protein G overnight at 4 °C, three washes with PBS 0.1% Tween; Western blot. (In western blotting, separated proteins are transferred to a membrane and probed.)

Assay [1] addresses T2, POGZ (endogenous, mouse ESCs) (mouse (endogenous in mESCs R1)) (UniProt Q8BZH4).
T2 sequence: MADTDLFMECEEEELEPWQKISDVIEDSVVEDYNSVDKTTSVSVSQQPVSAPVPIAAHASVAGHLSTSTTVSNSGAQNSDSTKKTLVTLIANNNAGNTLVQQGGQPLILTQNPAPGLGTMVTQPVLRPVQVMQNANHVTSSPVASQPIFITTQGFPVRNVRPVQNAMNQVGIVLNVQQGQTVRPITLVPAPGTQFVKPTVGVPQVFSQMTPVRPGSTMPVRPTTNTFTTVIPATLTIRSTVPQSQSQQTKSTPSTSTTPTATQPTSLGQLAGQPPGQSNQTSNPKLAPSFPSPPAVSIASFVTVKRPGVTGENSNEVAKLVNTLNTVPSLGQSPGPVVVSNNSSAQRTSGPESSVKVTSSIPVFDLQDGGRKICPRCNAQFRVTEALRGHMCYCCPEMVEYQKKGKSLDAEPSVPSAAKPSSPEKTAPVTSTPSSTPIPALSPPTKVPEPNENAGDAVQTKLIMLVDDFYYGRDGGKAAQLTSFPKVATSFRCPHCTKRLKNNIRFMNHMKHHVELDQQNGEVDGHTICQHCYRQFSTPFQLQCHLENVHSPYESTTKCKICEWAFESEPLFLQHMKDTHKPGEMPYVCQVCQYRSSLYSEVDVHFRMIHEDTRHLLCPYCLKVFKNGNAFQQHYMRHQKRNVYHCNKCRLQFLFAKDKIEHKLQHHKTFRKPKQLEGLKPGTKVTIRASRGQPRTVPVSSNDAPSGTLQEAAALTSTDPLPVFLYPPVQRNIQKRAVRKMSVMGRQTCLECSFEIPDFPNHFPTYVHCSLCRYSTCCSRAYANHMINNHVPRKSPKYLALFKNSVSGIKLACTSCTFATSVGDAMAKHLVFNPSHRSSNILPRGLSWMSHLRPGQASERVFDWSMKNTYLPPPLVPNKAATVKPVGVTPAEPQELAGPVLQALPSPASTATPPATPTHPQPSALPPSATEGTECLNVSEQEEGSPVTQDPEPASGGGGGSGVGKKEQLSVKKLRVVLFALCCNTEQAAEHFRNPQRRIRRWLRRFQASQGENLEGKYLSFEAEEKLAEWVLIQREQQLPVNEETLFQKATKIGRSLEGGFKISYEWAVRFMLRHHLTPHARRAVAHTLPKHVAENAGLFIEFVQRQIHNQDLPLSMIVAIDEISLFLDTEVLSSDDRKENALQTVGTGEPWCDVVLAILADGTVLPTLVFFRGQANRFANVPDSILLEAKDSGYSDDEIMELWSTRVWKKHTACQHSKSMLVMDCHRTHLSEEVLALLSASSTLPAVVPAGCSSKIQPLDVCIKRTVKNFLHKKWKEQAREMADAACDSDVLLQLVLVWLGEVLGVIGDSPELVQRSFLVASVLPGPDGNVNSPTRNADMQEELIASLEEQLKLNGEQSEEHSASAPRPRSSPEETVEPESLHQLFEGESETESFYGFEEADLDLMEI
Kind of assay: co-IP; endogenous proteins in WT ESCs; total cell lysate with antibody-conjugated Dynabeads Protein G overnight at 4 °C, three washes with PBS 0.1% Tween; Western blot.

Assay [2] has as its target T3, POGZ (in vitro synthesized) (UniProt Q8BZH4).
T3 sequence: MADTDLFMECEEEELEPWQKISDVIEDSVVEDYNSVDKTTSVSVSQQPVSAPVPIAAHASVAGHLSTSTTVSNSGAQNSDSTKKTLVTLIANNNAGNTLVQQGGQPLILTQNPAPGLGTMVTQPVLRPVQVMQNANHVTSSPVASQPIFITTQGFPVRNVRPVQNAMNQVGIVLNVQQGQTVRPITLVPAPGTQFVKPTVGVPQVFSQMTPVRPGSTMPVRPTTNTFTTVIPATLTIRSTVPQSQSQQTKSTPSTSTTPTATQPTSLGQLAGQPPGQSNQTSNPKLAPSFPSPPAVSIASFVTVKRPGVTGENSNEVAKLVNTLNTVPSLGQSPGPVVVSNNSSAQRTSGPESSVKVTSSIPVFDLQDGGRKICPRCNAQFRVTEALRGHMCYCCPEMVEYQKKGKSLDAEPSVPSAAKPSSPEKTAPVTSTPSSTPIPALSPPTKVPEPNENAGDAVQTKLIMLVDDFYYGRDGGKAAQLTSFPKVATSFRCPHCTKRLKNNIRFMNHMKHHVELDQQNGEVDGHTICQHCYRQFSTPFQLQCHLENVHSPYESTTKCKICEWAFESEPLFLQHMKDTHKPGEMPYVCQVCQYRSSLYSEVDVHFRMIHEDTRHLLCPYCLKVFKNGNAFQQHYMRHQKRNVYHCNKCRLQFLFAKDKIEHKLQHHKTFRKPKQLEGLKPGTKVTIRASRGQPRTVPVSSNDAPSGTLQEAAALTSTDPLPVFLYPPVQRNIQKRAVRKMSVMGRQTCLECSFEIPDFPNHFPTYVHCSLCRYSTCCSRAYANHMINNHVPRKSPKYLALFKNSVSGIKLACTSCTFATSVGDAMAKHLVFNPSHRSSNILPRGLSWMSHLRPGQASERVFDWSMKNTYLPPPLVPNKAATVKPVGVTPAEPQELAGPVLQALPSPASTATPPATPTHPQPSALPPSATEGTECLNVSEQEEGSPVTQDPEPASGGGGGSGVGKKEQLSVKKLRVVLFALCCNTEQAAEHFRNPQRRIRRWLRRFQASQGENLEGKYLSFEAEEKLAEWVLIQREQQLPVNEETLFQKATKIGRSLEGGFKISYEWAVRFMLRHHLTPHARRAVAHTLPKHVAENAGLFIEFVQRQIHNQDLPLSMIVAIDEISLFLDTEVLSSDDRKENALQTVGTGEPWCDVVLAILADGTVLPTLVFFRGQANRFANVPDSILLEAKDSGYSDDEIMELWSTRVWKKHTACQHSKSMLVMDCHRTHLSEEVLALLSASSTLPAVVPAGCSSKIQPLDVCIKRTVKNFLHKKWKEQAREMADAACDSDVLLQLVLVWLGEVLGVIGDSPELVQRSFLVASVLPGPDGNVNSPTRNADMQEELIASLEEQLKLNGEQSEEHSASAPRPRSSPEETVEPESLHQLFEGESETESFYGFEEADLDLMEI
Kind of assay: co-IP; proteins synthesized in TNT rabbit reticulocyte lysate, 5–10 μl of each mixed in 300 μl TEN buffer, 30 min at room temperature; IP with Dynabeads protein G coupled with antibodies; Western blot.

As for “ARID1A/BAF250a (from UniProt A2BH40 1-2283)”, the binding result in the assay with 3 × Flag-POGZ (mouse) is given as “no binding”.

In the case of CHD4 (from UniProt Q6PDQ2 1-1915), the binding result (with 3 × Flag-POGZ (mouse); in assay [1]) was “no binding” in each case.

With “FLAG-BAF155 (in vitro synthesized) (from UniProt P97496 1-1104)”, the binding entry in assay [2] is “binds weakly”.

With HP1γ/CBX3 (from UniProt P23198 1-183), the binding result with 3 × Flag-POGZ (mouse) is “binds”.
